# About 7,500 (2.1%) of roughly 360,000 compounds were called active. The inconclusive results got no clear call from the source; some entries with a clear call stand among them for comparison. Calls come from the whole dose curve; as a rule, active = well fitted inhibition curve with a large enough effect; inconclusive = small, poorly fitted or top-dose-only effect, or effect the other way; inactive = flat fitted curve, though single readings scatter. Potencies of inconclusive entries are doubtful fits and often do not repeat.
# Assay: Nrf2 qHTS screen for inhibitors; note: nearly all actives have a fitted effect of over 60% in size
# Settings: A549 ARE-Fluc reporter, luciferase luminescence, 18-24 h; activity change, negative = inhibition: at 46 µM (top of the series)
# In short: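 Nrf2 function is reported as luminescence of an ARE-controlled luciferase in A549 cells. Compounds were tested at several concentrations, and a CellTiter-Fluor read on the same wells flagged cytotoxicity.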
# % is set by controls: 0 for no effect and ±100 for the full control effect; potency is the fitted concentration of half-maximal effect.
Compound,"activity change, negative = inhibition",Potency
COP(=O)(OC)c1ccc(NCc2cc(O)ccc2O)cc1,inactive: 0.164%,
Cc1ccc(CN2CC(C(=O)Nc3ccc(S(=O)(=O)N4CCCCC4)cc3)CC2=O)cc1 (stereo unspecified),,"inconclusive: 29.1 µM [falling, single point]"
O=S(=O)(Nc1ccc(Cl)cc1NS(=O)(=O)c1ccccc1)c1ccccc1,,"inconclusive: 29.1 µM [falling, single point]"
CCOC(=O)N/N=C/c1ccc(OCCSc2ccc(Cl)cc2)c(OC)c1,,"inconclusive: 29.1 µM [falling, single point]"
C=CCn1c(=O)c(C(=O)NC2CC2)c(O)c2cc(OC)c(OC)cc21,,"inconclusive: 5.8 µM [falling, partial curve, poor fit]"
Cc1ccc(Cn2c(SCC(=O)Nc3cc(C)on3)nc3ccccc3c2=O)cc1,,"inconclusive: 29.1 µM [falling, single point]"
Cc1cc(S(=O)(=O)N2CCOCC2)ccc1OCC(=O)Nc1ccc(Br)cc1F,inactive: 6.66%,
CC1CCc2sc(C(=O)NCc3ccccn3)cc2C1 (stereo unspecified),,"inconclusive: 4.11 µM [activator, full curve]"
O=C(Cn1c(=O)n(Cc2ccc3c(c2)OCO3)c(=O)c2oc3ccccc3c21)Nc1ccccc1,,"inconclusive: 25.9 µM [activator, single point]"
O=C(CN1CCc2ccccc2C1)Nc1cccc(S(=O)(=O)N2CCOCC2)c1,,"inconclusive: 18.4 µM [falling, partial curve, poor fit]"
COc1ccc(CCC(=O)NCCOc2ccc(Cl)cc2)cc1,,"inconclusive: 9.2 µM [activator, partial curve]"
CN(CC1CCCO1)S(=O)(=O)c1ccc(C(=O)Nc2nnc(-c3ccccc3)o2)cc1 (stereo unspecified),,"inconclusive: 23.1 µM [falling, single point]"
C=CC[C@@H](CC(=O)N(CCO)Cc1ccccc1)C(=O)N[C@H](COC(=O)[C@@H](CC=C)Cc1ccc(F)cc1)c1ccccc1,,"inconclusive: 16.4 µM [falling, partial curve, poor fit]"
O=C(Nc1ccc2nc(-c3ccccn3)[nH]c2c1)C1CCCCC1,,"inconclusive: 4.61 µM [activator, partial curve, poor fit]"
COc1ccc(OC)c(NC(=O)c2cccc(N3C(=O)C4C5CCC(C5)C4C3=O)c2)c1 (stereo unspecified),,"inconclusive: 20.6 µM [falling, partial curve]"
O=C(NCCO)c1ccc2c3n(nc2c1)-c1ccccc1CO3,,"inconclusive: 20.6 µM [falling, single point]"
CCN(CC)S(=O)(=O)c1ccc(C(=O)Nc2nnc(NC(=S)Nc3ccccc3)s2)cc1,,"inconclusive: 20.6 µM [activator, partial curve]"
COc1cc(/C=C/C(=O)c2ccc(Cl)s2)cc(OC)c1O,,"inconclusive: 29.1 µM [falling, single point]"
O=C(NC(=S)Nc1cc(C(F)(F)F)ccc1Cl)c1ccccc1,,"inconclusive: 1.84 µM [activator, partial curve, poor fit]"
C(=N\Nc1nc2ccccc2[nH]1)/c1ccccn1,,"inconclusive: 18.4 µM [falling, single point]"
O=C(CSc1nc2ccccc2s1)N1CCCCC1,,"inconclusive: 5.17 µM [activator, partial curve]"
COC(=O)c1ccccc1NC(=O)C1CC(=O)N(c2ccc(C)cc2)C1 (stereo unspecified),,"inconclusive: 29.1 µM [falling, single point]"

Compound,"activity change, negative = inhibition",Potency
CCN1CCc2c(sc(NC(=O)COc3ccccc3)c2C(=O)OC)C1,,"inconclusive: 3.26 µM [activator, partial curve, poor fit]"
Cc1ccc(NC(=O)CN2C(=O)NC3(CCCCC3C)C2=O)cc1S(=O)(=O)N1CCCCC1 (stereo unspecified),,"inconclusive: 13 µM [falling, partial curve, poor fit]"
Cc1ccc(OCC(=O)N2CCN(c3nnc(-c4ccccc4)c4ccccc34)CC2)cc1,,"inconclusive: 18.4 µM [falling, partial curve, poor fit]"
CNS(=O)(=O)c1ccc(NC(=O)c2ccccn2)cc1,,"inconclusive: 23.1 µM [activator, single point]"
COc1ccccc1/C=C/C(=O)N1CCN(S(=O)(=O)c2cccs2)CC1,inactive: -11.5%,
CCS(=O)(=O)NCc1ccc2c(c1)cc(C)n2C,inactive: 4.06%,
COc1ccc(C(=O)Nc2ccc(SC(F)F)cc2)cc1,inactive: 1.87%,
CCC(CO)Oc1cc(NCc2ccccc2Cl)c2ncn(C(C)C)c2c1 (stereo unspecified),,"inconclusive: 20.6 µM [falling, single point]"
COc1ccc(NC(=O)CN(C)C(=O)c2sc3cc(Cl)ccc3c2Cl)cc1,,"inconclusive: 13 µM [falling, partial curve]"
Cc1cc(=O)oc2cc(OCC(O)CN3CCc4ccccc4C3)ccc12 (stereo unspecified),inactive: -5.68%,
CC(C)c1nc2c(c(=O)c3ccccc3n2C)c(=O)n1-c1ccc(F)cc1,inactive: 5.65%,
Nc1ccc(OC(=O)Nc2ccc(O)cc2)cc1,,active: 20.6 µM
O=C(/C=C/N1CCOCC1)c1coc2ccccc12,,"inconclusive: 18.4 µM [activator, partial curve]"
COc1ccc2c(c1)CCc1c(C(=O)Nc3cc(C)n(Cc4ccc(Cl)cc4)n3)noc1-2,inactive: -5.95%,
Clc1ccc(-c2nc3ncccn3c2Cl)cc1,,"inconclusive: 2.06 µM [activator, full curve, poor fit]"
COc1ccc(/C=C\c2onc(C)c2S(=O)(=O)N2CCC(C(=O)Nc3ccccc3OC)CC2)cc1,inactive: -21.1%,
CCOC(=O)c1cccc(NC(=O)c2cc(CN3CCCC3)on2)c1,,"inconclusive: 5.17 µM [falling, partial curve, poor fit]"
S=c1nc[nH]c2c1ncn2-c1ccc(Cl)cc1,,"inconclusive: 29.1 µM [activator, single point]"
COc1cccc(CNC(=O)C2CCN(S(=O)(=O)c3ccc4c(c3)NC(=O)C(C)S4)CC2)c1 (stereo unspecified),,active: 18.4 µM
Cc1cccc(NC(=O)CSc2nnc(-c3ccco3)o2)c1C,,"inconclusive: 3.66 µM [activator, full curve, poor fit]"
CC(=O)c1cccc(OCC(=O)c2cc(C)n(-c3cc(C)on3)c2C)c1,,"inconclusive: 35.5 µM [falling, single point]"
N#Cc1ccccc1NC(=S)NC(=O)c1cccnc1,inactive: 6.56%,

# Laid out differently: 15 of the compounds above
Compound	activity change, negative = inhibition	Potency
CCN1CCc2c(sc(NC(=O)COc3ccccc3)c2C(=O)OC)C1		inconclusive: 3.26 µM [activator, partial curve, poor fit]
Cc1ccc(OCC(=O)N2CCN(c3nnc(-c4ccccc4)c4ccccc34)CC2)cc1		inconclusive: 18.4 µM [falling, partial curve, poor fit]
CNS(=O)(=O)c1ccc(NC(=O)c2ccccn2)cc1		inconclusive: 23.1 µM [activator, single point]
COc1ccccc1/C=C/C(=O)N1CCN(S(=O)(=O)c2cccs2)CC1	inactive: -11.5%	
COc1ccc(C(=O)Nc2ccc(SC(F)F)cc2)cc1	inactive: 1.87%	
CCC(CO)Oc1cc(NCc2ccccc2Cl)c2ncn(C(C)C)c2c1 (stereo unspecified)		inconclusive: 20.6 µM [falling, single point]
COc1ccc(NC(=O)CN(C)C(=O)c2sc3cc(Cl)ccc3c2Cl)cc1		inconclusive: 13 µM [falling, partial curve]
Cc1cc(=O)oc2cc(OCC(O)CN3CCc4ccccc4C3)ccc12 (stereo unspecified)	inactive: -5.68%	
Nc1ccc(OC(=O)Nc2ccc(O)cc2)cc1		active: 20.6 µM
Clc1ccc(-c2nc3ncccn3c2Cl)cc1		inconclusive: 2.06 µM [activator, full curve, poor fit]
COc1ccc(/C=C\c2onc(C)c2S(=O)(=O)N2CCC(C(=O)Nc3ccccc3OC)CC2)cc1	inactive: -21.1%	
S=c1nc[nH]c2c1ncn2-c1ccc(Cl)cc1		inconclusive: 29.1 µM [activator, single point]
COc1cccc(CNC(=O)C2CCN(S(=O)(=O)c3ccc4c(c3)NC(=O)C(C)S4)CC2)c1 (stereo unspecified)		active: 18.4 µM
Cc1cccc(NC(=O)CSc2nnc(-c3ccco3)o2)c1C		inconclusive: 3.66 µM [activator, full curve, poor fit]
N#Cc1ccccc1NC(=S)NC(=O)c1cccnc1	inactive: 6.56%	

# (cont.)

Compound,"activity change, negative = inhibition",Potency
COc1ccc(C2Nc3ccccc3C(=O)N2Cc2ccccc2)cc1COc1cccc(C(F)(F)F)c1 (stereo unspecified),inactive: -17.2%,
COc1ccc(OC)c(NC(=O)CSc2c3c(nc4ccccc24)CCCC3)c1,,"inconclusive: 16.4 µM [activator, partial curve]"
CCOC(=O)N1CCC(NC(=O)C2CCCN(Cc3nc(-c4cccc(Cl)c4)oc3C)C2)CC1 (stereo unspecified),,active: 16.4 µM
Cc1cc(NC(=O)CCSc2nc(-c3ccco3)cc(C(F)(F)F)n2)n(-c2ccccc2)n1,,"inconclusive: 18.4 µM [falling, single point]"
Cc1ccc(-n2c(O)c(/C=N/c3ncn[nH]3)c3ccccc3c2=O)cc1,,"inconclusive: 23.1 µM [falling, single point]"
CC1C(=O)Nc2ccc(S(=O)(=O)N3CCN(c4ccccc4F)CC3)cc2NC1=O (stereo unspecified),,"inconclusive: 14.6 µM [falling, partial curve]"
O=C(Nc1nc(-c2ccccc2)c(-c2ccccc2)o1)c1ccc(F)cc1,,"inconclusive: 29.1 µM [falling, single point]"
Cc1ccc(S(=O)(=O)NCCc2nnc3ccc(SCc4ccccc4C)nn23)cc1,,"inconclusive: 32.6 µM [falling, single point]"
C1=C(CCNc2ncnc3c2cnn3-c2ccccc2)CCCC1,,"inconclusive: 1.84 µM [activator, full curve]"
Cc1cccc(NC(=O)CCC(=O)N/N=C/c2ccc(O)cc2O)c1,,"inconclusive: 29.1 µM [falling, single point]"
CCN(CC)c1ccc(/C=N/N2C(=O)c3ccccc3C2=O)cc1,,"inconclusive: 20.6 µM [activator, single point]"
COc1ccc(C(=O)Nc2nc(CC(=O)NCCc3ccccc3)cs2)cc1,,"inconclusive: 23.1 µM [falling, single point]"
Cc1ccc(NC(=O)C(=O)NCc2ccco2)c(C)c1,,"inconclusive: 8.2 µM [activator, partial curve]"
CCc1ccc(S(=O)(=O)Nc2ccc(Cl)cn2)cc1,,"inconclusive: 2.06 µM [falling, full curve]"
O=C(Cn1cc(C(F)(F)F)cc(Cl)c1=O)NCc1ccccc1,,"inconclusive: 3.66 µM [activator, full curve]"
CN(Cc1ccccc1)c1nc(N)c([N+](=O)[O-])c(Nc2cccc(F)c2)n1,,"inconclusive: 16.4 µM [falling, partial curve]"
COc1ccc(/C=C2\CCc3ccccc3C2=O)cc1Cn1cccn1,,active: 2.31 µM
O=C(Nc1ccc(Cc2ccncc2)cc1)c1ccc(S(=O)(=O)N2CCOCC2)cc1,,active: 9.2 µM
CN(C)c1cccc(C(=O)N/N=C/c2ccccc2F)c1,,"inconclusive: 1.64 µM [activator, partial curve]"
Cc1ccc(S(=O)(=O)Nc2nnc(C(C)(C)C)s2)cc1,,"inconclusive: 32.6 µM [falling, partial curve, poor fit]"
COc1cc2nc(SCC(=O)NCc3ccco3)n(Cc3ccc(Cl)cc3)c(=O)c2cc1OC,,"inconclusive: 20.6 µM [falling, single point]"
CN(CC(=O)Nc1ccc2c(c1)OCCO2)S(=O)(=O)c1ccc(F)cc1,,"inconclusive: 29.1 µM [activator, single point]"

# A section of the results above:
Compound,"activity change, negative = inhibition",Potency
N#Cc1ccccc1NC(=S)NC(=O)c1cccnc1,inactive: 6.56%,
COc1ccc(C2Nc3ccccc3C(=O)N2Cc2ccccc2)cc1COc1cccc(C(F)(F)F)c1 (stereo unspecified),inactive: -17.2%,

# Source: PubChem BioAssay AID504444 (National Center for Advancing Translational Sciences (NCATS), 2011)
